From the supplement of paper PMC11732987, “Enantioselective OTUD7B fragment discovery through chemoproteomics screening and high-throughput optimisation” (Communications Chemistry, 2025)
The list shows a part of the results. The data scatter; read single values as rough.

target: ATP1A1 C249 (UniProt P05023); assay: log2 mean competition ratio of IA-DTB cysteine labelling (DMSO/compound) (log2 ratio); higher = stronger cysteine engagement by compound; conditions: 50 µM; treatment time: 4 h; cell line lysate: HEK293T
Procedure: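 IA-DTB competitive cysteine chemoproteomics in HEK293T RIPA lysate. Lysates were treated with compound 29 or 30 at 50 or 200 µM for 4 h, then IA-DTB (500 µM, 1 h), trypsin-digested, NeutrAvidin-enriched and analysed by diaPASEF. Competition ratio = intensity DMSO / intensity compound (n=4 treated, n=64 DMSO); binding: mean log2 CR ≥ 1 and p ≤ 0.05 plus QC filters. Target is the cysteine site.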

Row | SMILES | log2 mean competition ratio
1 | O=C(CCl)N[C@H]1CCCc2ccccc21 | 0.503
2 | O=C(CCl)N[C@@H]1CCCc2ccccc21 | 0.234

same assay, conditions: 200 µM; treatment time: 4 h; cell line lysate: HEK293T

Row | SMILES | log2 mean competition ratio
3 | O=C(CCl)N[C@H]1CCCc2ccccc21 | 0.282
4 | O=C(CCl)N[C@@H]1CCCc2ccccc21 | 0.238
